According to the supplement of paper PMC12067093, “Discovery and optimisation of a covalent ligand for TRIM25 and its application to targeted protein ubiquitination” (Chemical Science, 2025):
The list shows a part of the results.

Amino acid sequences for entries named in this document (tags omitted). A change or cut given only in a name is not applied to a line headed by its entry.
UniProt Q92896: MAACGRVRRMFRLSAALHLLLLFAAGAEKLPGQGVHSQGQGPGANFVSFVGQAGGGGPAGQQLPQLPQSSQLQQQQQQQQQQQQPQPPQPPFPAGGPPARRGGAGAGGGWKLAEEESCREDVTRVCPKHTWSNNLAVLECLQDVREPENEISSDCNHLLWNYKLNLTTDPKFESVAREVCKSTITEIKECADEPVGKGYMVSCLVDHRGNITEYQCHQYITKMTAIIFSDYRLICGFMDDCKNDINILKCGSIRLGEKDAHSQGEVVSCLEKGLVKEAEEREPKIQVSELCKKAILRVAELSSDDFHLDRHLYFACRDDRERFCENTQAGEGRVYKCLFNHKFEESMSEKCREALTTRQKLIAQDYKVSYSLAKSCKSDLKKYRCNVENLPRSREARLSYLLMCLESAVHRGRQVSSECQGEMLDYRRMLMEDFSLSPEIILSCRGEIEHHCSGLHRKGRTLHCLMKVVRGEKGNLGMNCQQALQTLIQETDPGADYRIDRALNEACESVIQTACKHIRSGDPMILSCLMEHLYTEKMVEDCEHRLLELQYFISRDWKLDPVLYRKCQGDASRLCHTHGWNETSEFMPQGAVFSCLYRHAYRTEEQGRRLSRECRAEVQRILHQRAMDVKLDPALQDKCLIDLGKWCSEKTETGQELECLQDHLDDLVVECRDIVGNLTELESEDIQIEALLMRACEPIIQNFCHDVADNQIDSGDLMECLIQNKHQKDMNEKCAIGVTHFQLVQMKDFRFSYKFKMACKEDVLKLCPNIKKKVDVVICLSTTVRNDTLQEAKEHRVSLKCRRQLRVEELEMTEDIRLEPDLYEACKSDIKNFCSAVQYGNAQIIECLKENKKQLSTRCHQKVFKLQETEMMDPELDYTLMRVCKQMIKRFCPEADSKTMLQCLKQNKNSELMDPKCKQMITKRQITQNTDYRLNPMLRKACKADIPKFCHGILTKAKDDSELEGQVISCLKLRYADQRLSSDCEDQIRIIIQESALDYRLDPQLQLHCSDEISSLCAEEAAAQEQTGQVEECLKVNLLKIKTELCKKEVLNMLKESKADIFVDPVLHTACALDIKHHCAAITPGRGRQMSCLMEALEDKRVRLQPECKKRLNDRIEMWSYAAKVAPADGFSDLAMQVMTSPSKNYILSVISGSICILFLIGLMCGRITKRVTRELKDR
UniProt P06280: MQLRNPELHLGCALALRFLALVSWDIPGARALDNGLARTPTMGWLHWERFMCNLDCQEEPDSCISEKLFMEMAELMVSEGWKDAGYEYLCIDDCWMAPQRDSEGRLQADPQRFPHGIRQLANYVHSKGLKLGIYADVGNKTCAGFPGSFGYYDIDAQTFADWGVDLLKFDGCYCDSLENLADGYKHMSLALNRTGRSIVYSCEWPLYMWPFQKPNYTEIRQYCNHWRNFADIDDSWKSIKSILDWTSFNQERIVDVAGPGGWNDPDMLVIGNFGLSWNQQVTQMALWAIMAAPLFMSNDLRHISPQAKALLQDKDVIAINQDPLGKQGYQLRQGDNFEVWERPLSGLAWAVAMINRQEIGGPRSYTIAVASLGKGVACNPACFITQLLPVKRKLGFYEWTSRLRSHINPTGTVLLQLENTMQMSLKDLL
UniProt Q3T8J9: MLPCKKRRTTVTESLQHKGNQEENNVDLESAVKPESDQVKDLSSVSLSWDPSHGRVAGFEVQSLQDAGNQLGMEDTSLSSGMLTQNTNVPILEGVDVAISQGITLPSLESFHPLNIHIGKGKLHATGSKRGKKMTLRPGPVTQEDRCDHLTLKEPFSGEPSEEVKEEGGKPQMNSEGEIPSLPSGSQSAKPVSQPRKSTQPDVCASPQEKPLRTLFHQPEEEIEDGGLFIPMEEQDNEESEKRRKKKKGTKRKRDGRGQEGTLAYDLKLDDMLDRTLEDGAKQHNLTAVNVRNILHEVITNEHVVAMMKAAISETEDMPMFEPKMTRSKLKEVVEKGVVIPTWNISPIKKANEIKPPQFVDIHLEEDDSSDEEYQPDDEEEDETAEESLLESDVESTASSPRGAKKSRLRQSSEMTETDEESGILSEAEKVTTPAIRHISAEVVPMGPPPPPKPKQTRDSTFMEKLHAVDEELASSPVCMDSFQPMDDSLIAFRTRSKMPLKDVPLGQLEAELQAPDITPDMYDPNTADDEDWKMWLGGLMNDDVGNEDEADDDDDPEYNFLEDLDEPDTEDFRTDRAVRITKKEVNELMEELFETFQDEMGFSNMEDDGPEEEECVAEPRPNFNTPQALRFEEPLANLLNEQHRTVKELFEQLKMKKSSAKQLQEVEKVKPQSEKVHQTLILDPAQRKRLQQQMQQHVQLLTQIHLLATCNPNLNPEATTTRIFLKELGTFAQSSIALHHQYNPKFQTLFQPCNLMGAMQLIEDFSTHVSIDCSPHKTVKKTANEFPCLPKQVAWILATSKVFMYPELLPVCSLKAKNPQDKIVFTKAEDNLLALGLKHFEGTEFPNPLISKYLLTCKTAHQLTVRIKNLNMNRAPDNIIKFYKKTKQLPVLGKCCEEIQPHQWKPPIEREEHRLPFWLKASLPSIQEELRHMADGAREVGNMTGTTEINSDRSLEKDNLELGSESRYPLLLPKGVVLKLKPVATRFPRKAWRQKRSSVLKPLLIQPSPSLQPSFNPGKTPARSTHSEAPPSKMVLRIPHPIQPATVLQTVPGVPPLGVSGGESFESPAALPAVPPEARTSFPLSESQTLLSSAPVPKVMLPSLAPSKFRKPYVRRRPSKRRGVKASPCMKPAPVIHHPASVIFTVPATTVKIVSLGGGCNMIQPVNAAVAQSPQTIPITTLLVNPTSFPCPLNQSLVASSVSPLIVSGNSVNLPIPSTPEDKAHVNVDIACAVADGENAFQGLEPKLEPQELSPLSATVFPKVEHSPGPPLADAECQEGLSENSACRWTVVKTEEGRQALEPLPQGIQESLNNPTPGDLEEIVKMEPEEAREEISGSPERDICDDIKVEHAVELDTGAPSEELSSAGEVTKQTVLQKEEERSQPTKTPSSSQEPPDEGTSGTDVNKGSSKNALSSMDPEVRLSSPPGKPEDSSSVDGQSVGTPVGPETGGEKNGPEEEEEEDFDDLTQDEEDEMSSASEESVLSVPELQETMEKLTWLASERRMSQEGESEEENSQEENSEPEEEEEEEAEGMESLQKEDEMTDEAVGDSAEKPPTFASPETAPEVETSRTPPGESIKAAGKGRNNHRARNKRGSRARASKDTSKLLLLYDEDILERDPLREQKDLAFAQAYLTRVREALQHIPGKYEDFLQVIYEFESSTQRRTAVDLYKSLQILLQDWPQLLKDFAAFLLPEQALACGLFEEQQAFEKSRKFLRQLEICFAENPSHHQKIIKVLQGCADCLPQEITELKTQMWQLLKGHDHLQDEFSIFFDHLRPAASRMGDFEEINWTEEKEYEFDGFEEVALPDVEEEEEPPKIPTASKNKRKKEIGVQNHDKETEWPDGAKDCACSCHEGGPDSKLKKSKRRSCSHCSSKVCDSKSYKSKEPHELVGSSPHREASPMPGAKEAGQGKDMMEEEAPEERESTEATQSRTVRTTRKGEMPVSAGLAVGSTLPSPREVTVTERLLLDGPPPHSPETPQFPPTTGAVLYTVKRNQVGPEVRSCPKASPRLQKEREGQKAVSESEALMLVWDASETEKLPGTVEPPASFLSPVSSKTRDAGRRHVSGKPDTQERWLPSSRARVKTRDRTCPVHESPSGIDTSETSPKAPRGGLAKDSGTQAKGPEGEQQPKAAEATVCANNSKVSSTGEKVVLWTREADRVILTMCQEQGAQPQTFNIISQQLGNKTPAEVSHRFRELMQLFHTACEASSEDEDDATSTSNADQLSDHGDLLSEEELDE
UniProt O75487: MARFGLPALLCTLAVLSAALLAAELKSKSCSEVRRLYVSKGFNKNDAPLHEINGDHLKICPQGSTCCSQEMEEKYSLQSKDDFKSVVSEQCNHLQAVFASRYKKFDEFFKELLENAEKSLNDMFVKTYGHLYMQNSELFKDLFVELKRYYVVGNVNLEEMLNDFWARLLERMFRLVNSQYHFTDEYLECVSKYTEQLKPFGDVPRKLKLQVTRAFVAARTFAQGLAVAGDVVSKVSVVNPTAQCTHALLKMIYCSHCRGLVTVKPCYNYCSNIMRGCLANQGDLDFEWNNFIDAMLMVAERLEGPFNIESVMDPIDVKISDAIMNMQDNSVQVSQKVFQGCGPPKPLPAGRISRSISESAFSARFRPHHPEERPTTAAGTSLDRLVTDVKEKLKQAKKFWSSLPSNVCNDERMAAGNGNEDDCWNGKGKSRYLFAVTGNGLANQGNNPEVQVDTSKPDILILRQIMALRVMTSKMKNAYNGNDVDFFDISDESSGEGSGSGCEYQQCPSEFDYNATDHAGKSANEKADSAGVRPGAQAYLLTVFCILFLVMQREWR
UniProt P16278: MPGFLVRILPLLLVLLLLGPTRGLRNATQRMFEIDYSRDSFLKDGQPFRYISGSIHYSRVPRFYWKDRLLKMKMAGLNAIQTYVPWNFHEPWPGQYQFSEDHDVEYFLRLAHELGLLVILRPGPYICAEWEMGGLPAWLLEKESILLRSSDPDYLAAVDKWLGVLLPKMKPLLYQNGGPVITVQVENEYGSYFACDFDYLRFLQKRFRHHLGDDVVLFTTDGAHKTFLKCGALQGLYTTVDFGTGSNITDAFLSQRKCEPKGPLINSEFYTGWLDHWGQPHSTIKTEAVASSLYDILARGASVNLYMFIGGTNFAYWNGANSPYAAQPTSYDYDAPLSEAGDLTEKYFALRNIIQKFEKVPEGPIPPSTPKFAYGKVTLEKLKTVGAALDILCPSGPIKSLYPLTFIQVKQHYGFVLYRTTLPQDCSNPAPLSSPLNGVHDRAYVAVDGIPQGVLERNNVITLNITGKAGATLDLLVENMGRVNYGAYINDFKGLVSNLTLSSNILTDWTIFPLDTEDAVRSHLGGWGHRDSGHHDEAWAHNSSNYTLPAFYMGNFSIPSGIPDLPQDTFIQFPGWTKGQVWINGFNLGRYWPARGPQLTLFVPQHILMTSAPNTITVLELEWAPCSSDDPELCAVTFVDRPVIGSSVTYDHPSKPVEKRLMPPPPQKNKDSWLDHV
UniProt P46926: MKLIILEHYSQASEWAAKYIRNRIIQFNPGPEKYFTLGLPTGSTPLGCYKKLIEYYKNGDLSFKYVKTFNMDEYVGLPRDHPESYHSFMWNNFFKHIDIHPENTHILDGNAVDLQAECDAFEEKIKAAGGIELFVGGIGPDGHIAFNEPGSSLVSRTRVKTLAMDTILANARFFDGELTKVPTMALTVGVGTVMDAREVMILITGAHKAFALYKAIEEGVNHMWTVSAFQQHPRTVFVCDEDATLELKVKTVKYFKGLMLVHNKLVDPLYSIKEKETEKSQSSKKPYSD

Compound: CC1Cc2ccccc2N1C(=O)C1CCCN(C1)C(=O)CCl (mixture of isomers) [TRIM25 ligand 11 (diastereomer mixture)]
Experiment: probe-labelled cysteine peptide fold change vs DMSO (competition) (log2 fold change); higher = less target engagement (more negative = stronger competition)
Details: THP-1, incubation time: 4 h
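Further: competitive chemoproteomic profiling in live THP-1 cells with an iodoacetamide desthiobiotin (IA-DTB) probe, comparing probe-labelled peptide intensities in compound-treated cells against DMSO-treated controls.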

| Target | probe-labelled cysteine peptide fold change (10 µM) | probe-labelled cysteine peptide fold change (50 µM) |
| --- | --- | --- |
| GLG1_Q92896_269_DAHSQGEVVSCLEK (UniProt Q92896) | -0.0665 | -0.208 |
| GLA_P06280_378+382_GVACNPACFITQLLPVKR (UniProt P06280) | -0.0751 | 0.0595 |
| GON4L_Q3T8J9_2140_AAEATVCANNSK (UniProt Q3T8J9) | -0.06 | -0.454 |
| GPC4_O75487_341_VFQGCGPPKPLPAGR (UniProt O75487) | -0.0123 | -0.141 |
| GLB1_P16278_426_TTLPQDCSNPAPLSSPLNGVHDR (UniProt P16278) | 0.431 | -0.0549 |
| GNPDA1_P46926_48_YFTLGLPTGSTPLGCYK (UniProt P46926) | -0.0393 | -0.0075 |
